Reference: PubChem BioAssay AID504847 (National Center for Advancing Translational Sciences (NCATS), 2011)
Several values for one entry are separate records, joined by “and”; a condition that tells them apart may be missing. Identical values can stand only once. About 3,700 (0.93%) of roughly 400,000 compounds were called active. The shares of active, inactive and inconclusive entries below differ from those in the screen. Calls come from the whole dose curve; as a rule, active = well fitted inhibition curve with a large enough effect; inconclusive = small, poorly fitted or top-dose-only effect, or another doubt; inactive = no such curve, though single readings can be large or run the other way. Potencies beside an inconclusive call are fits to weak or partial responses and may not hold up.

Amino acid sequences for entries named in this document (tags omitted). A change or cut given only in a name is not applied to a line headed by its entry.
UniProt P11473: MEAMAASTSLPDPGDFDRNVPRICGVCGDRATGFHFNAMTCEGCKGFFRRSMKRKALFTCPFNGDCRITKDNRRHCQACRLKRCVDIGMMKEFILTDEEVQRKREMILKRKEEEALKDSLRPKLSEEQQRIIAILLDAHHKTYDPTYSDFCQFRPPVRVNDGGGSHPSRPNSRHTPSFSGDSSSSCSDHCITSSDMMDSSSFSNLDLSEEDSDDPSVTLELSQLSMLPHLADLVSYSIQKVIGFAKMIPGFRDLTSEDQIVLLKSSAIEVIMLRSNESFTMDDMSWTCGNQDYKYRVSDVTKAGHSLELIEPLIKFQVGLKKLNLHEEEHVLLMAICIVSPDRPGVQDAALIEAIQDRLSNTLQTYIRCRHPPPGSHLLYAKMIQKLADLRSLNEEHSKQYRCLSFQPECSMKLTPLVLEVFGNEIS

These compounds were tested against Vitamin D3 receptor (Homo sapiens) (UniProt P11473) (assay: Inhibitors of the vitamin D receptor (VDR): qHTS). Settings: VDR-SRC2-3 peptide fluorescence polarization, 2 h; max response, negative = inhibition: hits give low values.
Procedure, shortened: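 Signal is fluorescence polarization, reporting how far test compounds block the interaction of VDR with the SRC2-3 coregulator peptide after a 2 h room-temperature incubation.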
% is set by controls: 0 for no effect and ±100 for the full control effect; potency is the fitted concentration of half-maximal effect.

| SMILES | Potency | max response, negative = inhibition |
| --- | --- | --- |
| Cc1onc(C(=O)NCc2ccccn2)c1[N+](=O)[O-] | inconclusive: 79.4 µM [inhibitor, partial curve] | – |
| C=CCn1c(SCc2ccc(Br)cc2F)nc2cc(C(=O)O)ccc2c1=O | inconclusive: 56.2 µM [inhibitor, partial curve, poor fit] | – |
| NC(=O)CC(NC(=O)c1ccccc1)c1ccc(N2CCN(c3ccccn3)CC2)c([N+](=O)[O-])c1 (configuration not stated) | inconclusive: 39.8 µM [inhibitor, single point] | – |
| CCOc1cc(/C=C2\CN(C)C/C(=C\c3ccc(O)c(OCC)c3)C2=O)ccc1O | inconclusive: 14.1 µM [inhibitor, full curve, poor fit] | – |
| Cc1ccc(Nc2nc(-c3sc(N)nc3C)cs2)cc1 | active: 79.4 µM | – |
| CC1(C)Cc2c(cnn2-c2ccc(F)cc2)C(NC(=O)C2=NNC(=O)CC2)C1 (configuration not stated) | inconclusive: 39.8 µM [inhibitor, single point] | – |
| CC1=C(C(=O)c2ccccc2)C(c2ccc(OC(F)F)cc2)NC(=S)N1 (configuration not stated) | inconclusive: 100 µM [inhibitor, single point] | – |
| Cc1ccc(N2C(=O)C3C4C=CC(CNC(=S)N5CCN(c6cccc(C)c6)C(C)C5)(O4)C3C2=O)cc1 (configuration not stated) | inconclusive: 70.8 µM [inhibitor, partial curve] | – |
| O=C(NCCCN1CCOCC1)c1sc2cc([N+](=O)[O-])ccc2c1Cl | inconclusive: 39.8 µM [inhibitor, single point] | – |
| Cc1ccc(S(=O)(=O)/N=C(/NC(=S)Nc2cccc(C)c2)c2ccccc2)cc1 | inconclusive: 89.1 µM [inhibitor, single point] | – |
| CCOc1ccc(NC(c2ccccn2)c2oc(CO)cc(=O)c2O)cc1 (configuration not stated) | inconclusive: 44.7 µM [inhibitor, single point] | – |
| Cc1c(C(=O)c2ccccc2)c2ccccn2c1CCc1ccccn1 | – | inactive: 42.9% |
| CC(C)CC1NC(C(=O)O)Cc2c1[nH]c1ccccc21 (configuration not stated) | – | inactive: 19.1% |
| COc1cccc(CNC2CCCc3ccccc32)c1OC (configuration not stated) | – | inactive: -2.43% |
| CCCN1C/C(=C/c2cccc([N+](=O)[O-])c2)C(=O)/C(=C/c2cccc([N+](=O)[O-])c2)C1 | inconclusive: 89.1 µM [inhibitor, single point] | – |
| COc1ccc(N(CC(=O)Nc2cccc3ccccc23)S(C)(=O)=O)c(OC)c1 | inconclusive: 35.5 µM [inhibitor, partial curve, poor fit] | – |
| CC(O)(Cc1cccnc1)c1cccs1 (configuration not stated) | – | inactive: -1.52% |
| CCc1ccc(NC2CC(=O)N(CCc3ccc(OC)c(OC)c3)C2=O)cc1 (configuration not stated) | inconclusive: 89.1 µM [inhibitor, single point] | – |
| C=C1C(=O)OC2C[C@@]3(C)CCCC(C)C3=CC12 (some centres not stated) | active: 39.8 µM | – |
| Clc1ccccc1-c1nccc(NCc2ccccc2)n1 | inconclusive: 79.4 µM [inhibitor, single point] | – |
| C/C(=N/NC(=O)c1cc(-c2cccc([N+](=O)[O-])c2)n[nH]1)c1cccc(O)c1 | – | inactive: -9.53% |
| Cc1ccc(S(=O)(=O)N2CCC(C(=O)NNC(=O)c3ccccc3O)CC2)cc1 | – | inactive: -8.46% |
| O=C(Nc1cc(-c2nn(CC(=O)N3CCCCC3)c(=O)c3ccccc23)ccc1N1CCOCC1)c1ccc(Cl)cc1 | inconclusive: 8.91 µM [inhibitor, partial curve, poor fit] | – |

| SMILES | Potency | max response, negative = inhibition |
| --- | --- | --- |
| C=C1C(=O)C23CCC4C(C)(C(=O)OC)CCCC4(C)C2CCC1(O)C3 (configuration not stated) | inconclusive: 10 µM [inhibitor, full curve, poor fit] | – |
| CCn1c(=O)c(=O)[nH]c2cc(C(=O)NC3CCCC3)ccc21 | inconclusive: 50.1 µM [inhibitor, partial curve, poor fit] | – |
| COc1ccccc1-c1noc(COC(=O)c2ccc(Br)o2)n1 | inconclusive: 89.1 µM [inhibitor, single point] | – |
| CN(C)c1ccc(NC(=S)c2ccc3ccccc3n2)cc1 | inconclusive: 3.55 µM [inhibitor, partial curve, poor fit] | – |
| O=C(Cc1ccccc1Nc1c(Cl)cccc1Cl)OCO/N=[N+](\[O-])N1CCCC1 | inconclusive: 56.2 µM [inhibitor, partial curve, poor fit] | – |
| CCc1nnc(NS(=O)(=O)c2ccc(NC(=O)c3ccc(C#N)cc3)cc2)s1 | – | inactive: 4.91% |
| CC(=O)N1CCc2cc(S(=O)(=O)NCC(=O)NCc3ccc(F)cc3)ccc21 | – | inactive: -17.5% |
| FC(F)(F)c1ccccc1-c1ccc2ncnc(NCc3cccnc3)c2c1 | inconclusive: 63.1 µM [inhibitor, partial curve, poor fit] | – |
| CCc1cc(C(c2ccc(OC)c(OC)c2)N2CCOCC2)c(NC(=O)c2ccccc2)s1 (configuration not stated) | inconclusive: 44.7 µM [inhibitor, partial curve] | – |
| O=C(O)c1cccc(Nc2ccncc2[N+](=O)[O-])c1 | inconclusive: 25.1 µM [inhibitor, single point] | – |
| O=C(CCNC(=O)c1ccccc1Cl)N/N=C\c1ccc(O)cc1 | active: 22.4 µM | – |
| Cc1ccc(NC(=O)NCc2nc3ccccc3n2C)cc1 | – | inactive: 11.2% |
| O=C1c2ccccc2C(=O)N1CCCc1c[nH]c2ccc(Cl)cc12 | inconclusive: 39.8 µM [inhibitor, partial curve] | – |
| O=C(Nc1nc(-c2ccccc2)cs1)c1ccc(Br)o1 | inconclusive: 89.1 µM [inhibitor, partial curve, poor fit] | – |
| CC(=O)Nc1ccc(S(=O)(=O)NCCC(=O)Nc2cccc(Cl)c2)cc1 | inconclusive: 79.4 µM [inhibitor, single point] | – |
| CC(=O)n1cc(C(C[N+](=O)[O-])SCCN)c2ccccc21 (configuration not stated) | active: 22.4 µM | – |
| C=CCn1c(C)cc(C(=O)CSc2n[nH]c(N)n2)c1C | – | inactive: -10.4% |
| COc1ccccc1-c1cc(C(=O)N2CCN(c3ccccc3)CC2)no1 | – | inactive: -19.6% and inactive: -6.14% |
| COc1ccc(-c2noc(CSc3nnc(CCc4ccccc4)n3-c3ccccc3)n2)cc1OC | – | inactive: 8.84% |
| CCOc1ccc(C(O)(c2ccccc2OC)C(CN2CCCC2)c2ccccc2)cc1 (configuration not stated) | inconclusive: 89.1 µM [inhibitor, single point] | – |
| CCCN(C(=O)c1cc(C)ccc1C)c1c(N)n(Cc2ccccc2)c(=O)[nH]c1=O | inconclusive: 79.4 µM [inhibitor, single point] | – |
| COc1ccc(-c2cc(OC(=O)c3ccccc3C)c3c(C)oc(C)c3c(=O)c2)cc1 | inconclusive: 56.2 µM [inhibitor, partial curve, poor fit] | – |
| CCSc1nnc(N2C(=O)C(O)=C(C(=O)c3ccco3)C2c2cccc(OC)c2)s1 (configuration not stated) | inconclusive: 70.8 µM [inhibitor, partial curve, poor fit] | – |

| SMILES | Potency | max response, negative = inhibition |
| --- | --- | --- |
| CCN(CC)CCC(=O)N1c2ccccc2Sc2ccc(C(F)(F)F)cc21 | active: 28.2 µM | – |
| Nc1ccc(C(=O)Nc2ccc(Nc3ccncc3)cc2)cc1 | – | inactive: 2.98% |
| Cc1ccc(NC(=S)NNC(=S)NCc2ccccc2)cc1 | active: 50.1 µM | – |
| C=CCNc1nc(-c2sc(NC(C)=O)nc2C)cs1 | inconclusive: 89.1 µM [inhibitor, single point] | – |
| COC1=C(OC)C(=O)C(CCCCCCCCCCO)=C(C)C1=O | active: 44.7 µM | – |
| O=C(CCS(=O)(=O)c1ccccc1Cl)NCc1ccc(F)cc1 | inconclusive: 89.1 µM [inhibitor, partial curve, poor fit] | – |
| c1ccc(Cn2cnc3ccccc32)cc1 | – | inactive: -16.6% |
| COc1cccc(CN(C)C(=O)CNC(=O)c2sc3ccccc3c2Cl)c1OC | inconclusive: 70.8 µM [inhibitor, partial curve, poor fit] | – |
| Cc1ccc(/C(=N\O)c2oc3c(C)c4oc(=O)cc(C)c4cc3c2C)cc1 | – | inactive: -5.57% |
| C=CS(=O)c1sc(Cl)c(N2CCOCC2)c1[N+](=O)[O-] (configuration not stated) | inconclusive: 7.94 µM [inhibitor, full curve, poor fit] | – |
| CCN(CC)C(=O)c1sc(NC(=O)c2ccoc2C)c(C(=O)OC)c1C | inconclusive: 50.1 µM [inhibitor, partial curve] | – |
| O=C(SCC(O)C(O)CS)c1cccs1 (configuration not stated) | inconclusive: 89.1 µM [inhibitor, partial curve, poor fit] | – |
| CC(=O)N1CCCC1c1nc2ccccc2n1Cc1c(F)cccc1Cl (configuration not stated) | – | inactive: 8.45% |
| COc1ccc(C(=S)N2CCCCCC2)cc1 | inconclusive: 89.1 µM [inhibitor, single point] | – |
| CCOC(=O)COc1c(Br)cc(/C=C2\SC(=O)N(CC(=O)N3CCCC3)C2=O)cc1OC | inconclusive: 39.8 µM [inhibitor, single point] | – |
| CC1=CC(=O)C2C(C)(C)CCC[C@@]2(C)[C@@]1(O)CCc1ccoc1 (some centres not stated) | active: 50.1 µM | – |
| COC(=O)/C=C\c1cc(O)ccc1O | inconclusive: 63.1 µM [inhibitor, single point] | – |
| COCC(C)n1c(COc2ccccc2F)nnc1SCC(=O)c1c(N)n(C)c(=O)n(C)c1=O (configuration not stated) | inconclusive: 89.1 µM [inhibitor, single point] | – |
| Cn1c(CN2CCC(C(N)=O)CC2)c(C#N)c2ccccc21 | – | inactive: 13.4% |
| CN(C)S(=O)(=O)c1ccc(C(=O)NCC2CC2(Cl)Cl)cc1 (configuration not stated) | inconclusive: 79.4 µM [inhibitor, partial curve] | – |
| O=c1c2ccccc2sn1-c1cc(S(=O)(=O)N2CCOCC2)ccc1N1CCCC1 | inconclusive: 7.94 µM [inhibitor, full curve, poor fit] | – |
